PubChem BioAssay AID1508597 – Cure First, 2020

- Aim: 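Survival screen with siRNA in ovarian cancer cells derived from patients, with or without rucaparib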 (primary screen)
- Cell system: human ovarian carcinoma lines grown from tumours: OCI-P5x (papillary serous) and OCI-C5x (clear cell)
- Knock-down reagent: siRNA pool against human genes, 1.25 pmol siRNA per well
- Time to read-out: 72 h or 96 h, depending on the cell culture
- Challenge: rucaparib 20 µM (about IC30) or vehicle, present until read-out
- Detection: 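ATP luminescence measured at 72 or 96 h according to the culture, then normalised and expressed as percent viability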
- Direction: viability, normalised: higher = more viable cells remaining
- Rule for the call: 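a well counts as a hit if its normalised viability is under 80 percent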
- Calls: active = viability under 80%; inactive = viability 80% or more
This is an unselected part of about 2,100 deposited reagents. 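Calls flag viability under 80% in either arm, not effects specific to rucaparib; the reference for percent is not stated.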 No sequences are given here. Not given: the 100% reference.

RRM2 (ribonucleotide reductase regulatory subunit M2), rucaparib or vehicle Rucaparib, cell line OCI-C5x (clear cell), technical replicate 1
- viability, normalised (%): 41.1
- Outcome: active

RRM2 (ribonucleotide reductase regulatory subunit M2), rucaparib or vehicle Rucaparib, cell line OCI-C5x (clear cell), technical replicate 2
- viability, normalised (%): 33.4
- Outcome: active

RRM2 (ribonucleotide reductase regulatory subunit M2), rucaparib or vehicle Rucaparib, cell line OCI-C5x (clear cell), technical replicate 3
- viability, normalised (%): 39.5
- Outcome: active

RRM2 (ribonucleotide reductase regulatory subunit M2), rucaparib or vehicle Rucaparib, cell line OCI-P5x (serous), technical replicate 1
- viability, normalised (%): 52.9
- Outcome: active

RRM2 (ribonucleotide reductase regulatory subunit M2), rucaparib or vehicle Rucaparib, cell line OCI-P5x (serous), technical replicate 2
- viability, normalised (%): 43.7
- Outcome: active

RRM2 (ribonucleotide reductase regulatory subunit M2), rucaparib or vehicle Rucaparib, cell line OCI-P5x (serous), technical replicate 3
- viability, normalised (%): 50.8
- Outcome: active

RRM2 (ribonucleotide reductase regulatory subunit M2), rucaparib or vehicle Vehicle, cell line OCI-C5x (clear cell), technical replicate 1
- viability, normalised (%): 34.7
- Outcome: active

RRM2 (ribonucleotide reductase regulatory subunit M2), rucaparib or vehicle Vehicle, cell line OCI-C5x (clear cell), technical replicate 2
- viability, normalised (%): 33.8
- Outcome: active

RRM2 (ribonucleotide reductase regulatory subunit M2), rucaparib or vehicle Vehicle, cell line OCI-C5x (clear cell), technical replicate 3
- viability, normalised (%): 28.6
- Outcome: active

RRM2 (ribonucleotide reductase regulatory subunit M2), rucaparib or vehicle Vehicle, cell line OCI-P5x (serous), technical replicate 1
- viability, normalised (%): 43
- Outcome: active

RRM2 (ribonucleotide reductase regulatory subunit M2), rucaparib or vehicle Vehicle, cell line OCI-P5x (serous), technical replicate 2
- viability, normalised (%): 40.5
- Outcome: active

RRM2 (ribonucleotide reductase regulatory subunit M2), rucaparib or vehicle Vehicle, cell line OCI-P5x (serous), technical replicate 3
- viability, normalised (%): 31.8
- Outcome: active

SETD2 (SET domain containing 2, histone lysine methyltransferase), rucaparib or vehicle Rucaparib, cell line OCI-C5x (clear cell), technical replicate 1
- viability, normalised (%): 55.3
- Outcome: active

SETD2 (SET domain containing 2, histone lysine methyltransferase), rucaparib or vehicle Rucaparib, cell line OCI-C5x (clear cell), technical replicate 2
- viability, normalised (%): 40.4
- Outcome: active

SETD2 (SET domain containing 2, histone lysine methyltransferase), rucaparib or vehicle Rucaparib, cell line OCI-C5x (clear cell), technical replicate 3
- viability, normalised (%): 34.4
- Outcome: active

SETD2 (SET domain containing 2, histone lysine methyltransferase), rucaparib or vehicle Rucaparib, cell line OCI-P5x (serous), technical replicate 1
- viability, normalised (%): 45.3
- Outcome: active

SETD2 (SET domain containing 2, histone lysine methyltransferase), rucaparib or vehicle Rucaparib, cell line OCI-P5x (serous), technical replicate 2
- viability, normalised (%): 62.7
- Outcome: active

SETD2 (SET domain containing 2, histone lysine methyltransferase), rucaparib or vehicle Rucaparib, cell line OCI-P5x (serous), technical replicate 3
- viability, normalised (%): 49.9
- Outcome: active

SETD2 (SET domain containing 2, histone lysine methyltransferase), rucaparib or vehicle Vehicle, cell line OCI-C5x (clear cell), technical replicate 1
- viability, normalised (%): 48.9
- Outcome: active

SETD2 (SET domain containing 2, histone lysine methyltransferase), rucaparib or vehicle Vehicle, cell line OCI-C5x (clear cell), technical replicate 2
- viability, normalised (%): 45.2
- Outcome: active

SETD2 (SET domain containing 2, histone lysine methyltransferase), rucaparib or vehicle Vehicle, cell line OCI-C5x (clear cell), technical replicate 3
- viability, normalised (%): 44.3
- Outcome: active

SETD2 (SET domain containing 2, histone lysine methyltransferase), rucaparib or vehicle Vehicle, cell line OCI-P5x (serous), technical replicate 1
- viability, normalised (%): 62.4
- Outcome: active

SETD2 (SET domain containing 2, histone lysine methyltransferase), rucaparib or vehicle Vehicle, cell line OCI-P5x (serous), technical replicate 2
- viability, normalised (%): 72.3
- Outcome: active

SETD2 (SET domain containing 2, histone lysine methyltransferase), rucaparib or vehicle Vehicle, cell line OCI-P5x (serous), technical replicate 3
- viability, normalised (%): 83.7
- Outcome: inactive

ENPP6 (ectonucleotide pyrophosphatase/phosphodiesterase 6), rucaparib or vehicle Rucaparib, cell line OCI-C5x (clear cell), technical replicate 1
- viability, normalised (%): 70.6
- Outcome: active

ENPP6 (ectonucleotide pyrophosphatase/phosphodiesterase 6), rucaparib or vehicle Rucaparib, cell line OCI-C5x (clear cell), technical replicate 2
- viability, normalised (%): 67.1
- Outcome: active

ENPP6 (ectonucleotide pyrophosphatase/phosphodiesterase 6), rucaparib or vehicle Rucaparib, cell line OCI-C5x (clear cell), technical replicate 3
- viability, normalised (%): 60.9
- Outcome: active

ENPP6 (ectonucleotide pyrophosphatase/phosphodiesterase 6), rucaparib or vehicle Rucaparib, cell line OCI-P5x (serous), technical replicate 1
- viability, normalised (%): 57.1
- Outcome: active

ENPP6 (ectonucleotide pyrophosphatase/phosphodiesterase 6), rucaparib or vehicle Rucaparib, cell line OCI-P5x (serous), technical replicate 2
- viability, normalised (%): 54.6
- Outcome: active

ENPP6 (ectonucleotide pyrophosphatase/phosphodiesterase 6), rucaparib or vehicle Rucaparib, cell line OCI-P5x (serous), technical replicate 3
- viability, normalised (%): 71.5
- Outcome: active

ENPP6 (ectonucleotide pyrophosphatase/phosphodiesterase 6), rucaparib or vehicle Vehicle, cell line OCI-C5x (clear cell), technical replicate 1
- viability, normalised (%): 63.9
- Outcome: active

ENPP6 (ectonucleotide pyrophosphatase/phosphodiesterase 6), rucaparib or vehicle Vehicle, cell line OCI-C5x (clear cell), technical replicate 2
- viability, normalised (%): 64.2
- Outcome: active

ENPP6 (ectonucleotide pyrophosphatase/phosphodiesterase 6), rucaparib or vehicle Vehicle, cell line OCI-C5x (clear cell), technical replicate 3
- viability, normalised (%): 70.3
- Outcome: active

ENPP6 (ectonucleotide pyrophosphatase/phosphodiesterase 6), rucaparib or vehicle Vehicle, cell line OCI-P5x (serous), technical replicate 1
- viability, normalised (%): 73.4
- Outcome: active

ENPP6 (ectonucleotide pyrophosphatase/phosphodiesterase 6), rucaparib or vehicle Vehicle, cell line OCI-P5x (serous), technical replicate 2
- viability, normalised (%): 72.4
- Outcome: active

ENPP6 (ectonucleotide pyrophosphatase/phosphodiesterase 6), rucaparib or vehicle Vehicle, cell line OCI-P5x (serous), technical replicate 3
- viability, normalised (%): 59.3
- Outcome: active

6 entries from above, reformatted.
SETD2 (SET domain containing 2, histone lysine methyltransferase), rucaparib or vehicle Rucaparib, cell line OCI-C5x (clear cell), technical replicate 1 | viability, normalised (%): 55.3; Outcome: active
SETD2 (SET domain containing 2, histone lysine methyltransferase), rucaparib or vehicle Rucaparib, cell line OCI-C5x (clear cell), technical replicate 2 | viability, normalised (%): 40.4; Outcome: active
SETD2 (SET domain containing 2, histone lysine methyltransferase), rucaparib or vehicle Rucaparib, cell line OCI-C5x (clear cell), technical replicate 3 | viability, normalised (%): 34.4; Outcome: active
SETD2 (SET domain containing 2, histone lysine methyltransferase), rucaparib or vehicle Rucaparib, cell line OCI-P5x (serous), technical replicate 1 | viability, normalised (%): 45.3; Outcome: active
SETD2 (SET domain containing 2, histone lysine methyltransferase), rucaparib or vehicle Rucaparib, cell line OCI-P5x (serous), technical replicate 2 | viability, normalised (%): 62.7; Outcome: active
SETD2 (SET domain containing 2, histone lysine methyltransferase), rucaparib or vehicle Rucaparib, cell line OCI-P5x (serous), technical replicate 3 | viability, normalised (%): 49.9; Outcome: active
